PubChem BioAssay AID2685 (National Center for Advancing Translational Sciences (NCATS), 2010)
Some of the results follow. Shown are side measurements of this screen, not its main read-out; they come without a call. The list favours compounds with an active or inconclusive main result. Words in brackets tell the shape of the fitted curve; partial curves, single points and poor fits give uncertain potencies.

Experiment: qHTS Assay for Lipid Storage Modulators in Drosophila S3 Cells;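 for cell number change: cells counted by Cell Tracker Red CMTPX staining in the red channel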
Conditions: BODIPY lipid droplet fluorescence, 18-24 h; for cell number change: measured here: cell count max response, cells fed with added oleic acid
In short: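 Drosophila S3 cells loaded with oleic acid (400 uM, as added) and compounds at several concentrations; lipid droplets imaged by 488-nm laser-scanning cytometry, 500–530 nm intensity and object ratio to cell channel. Percent activity normalized to 20 uM Triacsin C.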

[1] = measured here: cell number channel AC50, cells fed with added oleic acid
[2] = measured here: lipid fluorescence (Fed channel) AC50, cells fed with added oleic acid

| Structure (SMILES) | cell number change [%] | AC50 [1] | AC50 [2] |
| --- | --- | --- | --- |
| Cc1ccc([N+](=O)[O-])cc1N=Cc1ccc(Br)s1 | -14.2 | 5.8 µM [falling, partial curve] | 0.0206 µM [falling, full curve, poor fit] |
| COc1ccc(NC(=O)C(Cc2cc(C)cc(C)c2)C(C)C(=O)O)cc1 (stereo not drawn) | 43.2 | 29.1 µM [rising, single point] | – |
| CC(=O)C1=C(O)C(=O)N(CCCO)C1c1ccccc1 (stereo not drawn) | -5.34 | – | 1.46 µM [falling, partial curve] |
| O=C1CSC(c2ccc(F)cc2)N1c1nc2ccccc2s1 (stereo not drawn) | 23.4 | – | 11.6 µM [rising, partial curve] |
| CC(=O)Nc1ccc(S(=O)(=O)N(C)CC(=O)N/N=C/c2cccs2)cc1 | -17.9 | – | – |
| CCOC(=O)c1c(C)noc1-c1ccco1 | -1.45 | 0.116 µM [falling, full curve, poor fit] | – |
| COc1cc2c(cc1OC)CN(S(=O)(=O)c1cccc(F)c1)CC2 | -22.2 | – | 29.1 µM [rising, single point] |
| CCC(CC)C(=O)Nc1cccc(-c2nc3ccccc3o2)c1 | -32 | 29.1 µM [falling, single point] | – |
| COc1ccc(S(=O)(=O)N(CC(=O)N/N=C/c2cccs2)c2cc(C)cc(C)c2)cc1OC | 95.7 | 1.3 µM [rising, full curve] | 0.92 µM [rising, partial curve] |
| CCN(CC(=O)Nc1ccc(NC(C)=O)cc1)C(=O)c1cccnc1Sc1ccc(C)c(C)c1 | 9.77 | – | 13 µM [falling, partial curve, poor fit] |
| CN(C)S(=O)(=O)c1ccc(C(=O)Nc2ccc(Cl)cc2)cc1 | 25.7 | – | 6.51 µM [rising, single point] |
| Cc1noc(C)c1S(=O)(=O)N(CC(=O)N1CCn2c1nc1ccccc12)c1ccc(C(C)C)cc1 | 11.1 | – | – |
| Cc1[nH]n(-c2cccc3ccccc23)c(=O)c1/C=N/NC(=O)c1cccc([N+](=O)[O-])c1 | 0.493 | – | 2.06 µM [rising, full curve, poor fit] |
| Cc1ccc(S(=O)(=O)N2CCCC2CNC(=O)c2ccccc2)cc1 (stereo not drawn) | -100 | 8.2 µM [falling, partial curve] | 2.59 µM [falling, single point] |
| O=C(COc1ccc(Cl)cc1)Nc1ccccc1C(=O)NCc1cccnc1 | -21.9 | – | 20.6 µM [falling, partial curve, poor fit] |
| Cc1cc2c(c(=O)o1)C(C1C=CCCC1)C(C#N)=C(N)O2 (stereo not drawn) | 29.3 | 1.64 µM [rising, full curve, poor fit] | – |

| Structure (SMILES) | cell number change [%] | AC50 [1] | AC50 [2] |
| --- | --- | --- | --- |
| CC(=O)NS(=O)(=O)c1ccc(NS(=O)(=O)c2ccc(F)cc2)cc1 | -12.7 | – | 23.1 µM [falling, partial curve] |
| CC12CCC(C(=O)N3CCc4ccccc43)(CC1=O)C2(C)C (stereo not drawn) | 8 | – | – |
| CC1(C(=O)O)CCC(C(=O)NC2CCCCC2)C1(C)C (stereo not drawn) | -54.8 | 29.1 µM [falling, single point] | 29.1 µM [falling, single point] |
| CC(C)NC(=O)CN(Cc1ccc(F)cc1)C(=O)CCC(=O)Nc1ccccn1 | -1.3 | – | – |
| CCC(CC)c1nnc(NC(=O)C2CC(=O)N(CCc3ccc(OC)c(OC)c3)C2)s1 (stereo not drawn) | 27 | – | – |
| Cc1ccc(C(=O)Nc2cccc(C(F)(F)F)c2)cc1NC(=O)c1nccn1C | 26 | – | 0.0731 µM [rising, full curve, poor fit] |
| COc1ccc(N2CCN(C(=O)CSc3nnc(C)c(=O)[nH]3)CC2)cc1 | – | – | 23.1 µM [falling, partial curve] |
| COc1ccc(CNC(=O)C2CCN(S(=O)(=O)N3CCCCC3)CC2)cc1 | – | – | 0.58 µM [rising, single point] |
| COc1ccc(N2CCN(C(=O)CCC(=O)N3CCOc4ccc(C)cc43)CC2)cc1 | 10.4 | – | – |
| CN(CCCNC(=O)c1ccc(CS(=O)c2ccc(Br)cc2)o1)Cc1ccccc1 (stereo not drawn) | -9.44 | – | 29.1 µM [falling, single point] |
| Cc1ccc(SCc2cc(=O)[nH]c(N3CCN(Cc4ccc5c(c4)OCO5)CC3)n2)cc1 | -20.2 | – | 3.66 µM [falling, full curve] |
| Cc1ccc(-c2nc(N3CCN(C)CC3)c3ccccc3n2)cc1 | 2.07 | – | 3.26 µM [rising, full curve, poor fit] |
| COc1ccc2ccccc2c1/C=N/NC(=O)c1cccc(Br)c1 | 17 | – | 9.2 µM [rising, partial curve] |
| CN1CCN(c2nnc(-c3ccc(F)cc3)c3ccccc23)CC1 | 25.4 | – | – |
| O=C(Nc1ccc(F)cc1F)c1csc(-c2cccs2)n1 | 47.7 | 20.6 µM [rising, single point] | 29.1 µM [rising, single point] |
